From PubChem BioAssay AID504444 (National Center for Advancing Translational Sciences (NCATS), 2011)
Out of some 360,000 compounds screened, about 7,500 (2.1%) were called active. This list was built around the results that the source calls inconclusive (neither active nor inactive); the mix of calls is not that of the screen. The call rests on the fitted dose curve; in most records, active means well fitted inhibition curve with a large enough effect; inconclusive means small, poorly fitted or top-dose-only effect, or effect the other way; inactive means flat fitted curve, though single readings scatter. Potencies of inconclusive entries are doubtful fits and often do not repeat.

Assay: Nrf2 qHTS screen for inhibitors; further: nearly all actives have a fitted effect of over 60% in size
Conditions: A549 ARE-Fluc reporter, luciferase luminescence, 18-24 h; series mostly up to 46 µM
Summary of the method: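 In this cell-based qHTS, ARE-driven firefly luciferase in A549 cells reports Nrf2 activity; the luminescent signal after BugLite lysis is the measured value, with a prior CellTiter-Fluor read for cell health.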
Potency means the concentration at half of the fitted maximal effect.

Row | Structure (SMILES) | Potency
1 | COc1ccc(OCc2cc(-c3ccc(Cl)cc3)no2)cc1 | inconclusive: 14.6 µM [activator, partial curve, poor fit]
2 | COc1ccc(-n2nnc3c(SCc4ccccc4)ncnc32)cc1 | inconclusive: 6.51 µM [falling, single point]
3 | CN(Cc1ccccc1)CC1CCCN(CCc2ccccc2F)C1 (centres undefined) | inactive
4 | O=C1c2cccc3cccc(c23)C(=O)N1CC1CCCO1 (centres undefined) | inconclusive: 3.26 µM [activator, full curve]
5 | O=C(COC(=O)C(O)c1ccccc1)c1ccc2c(c1)OCCO2 (centres undefined) | inconclusive: 11.6 µM [activator, single point]
6 | CC(C)c1ccc(-n2cnn(-c3ncccc3[N+](=O)[O-])c2=O)cc1 | inconclusive: 5.8 µM [activator, partial curve]
7 | O=c1oc2ccc(Cl)cc2cc1-c1ccccc1 | inconclusive: 0.731 µM [falling, partial curve, poor fit]
8 | CCOc1c(OC)cccc1C(=O)NCC1(c2ccccc2)CCCC1 | inconclusive: 32.6 µM [falling, partial curve, poor fit]
9 | CN1CCN(C(=O)c2cc3cc(F)ccc3[nH]2)CC1 | inconclusive: 2.31 µM [activator, full curve]
10 | CC(=O)C[C@@H](O)CC(=O)[C@H]1OC(=O)[C@H](C)C/C=C\Cc2ccccc21 | inconclusive: 25.9 µM [activator, single point]
11 | NC(=S)N=Nc1c(O)n(Cc2ccccc2)c2ccccc12 | inactive
12 | O=C(NC1(Cc2ccccc2)CCN(CCCc2ccccc2)C1=O)c1ccccc1 (centres undefined) | inconclusive: 20.6 µM [falling, single point]
13 | Cc1cccc(NC(=O)C(=O)NCCc2c[nH]c3ccccc23)c1C | inconclusive: 20.6 µM [activator, single point]
14 | COc1ccc(N2C(=O)CS/C2=C\[N+](=O)[O-])cc1 | inconclusive: 0.164 µM [falling, full curve, poor fit]
15 | C[C@H](NC(=O)c1nc[nH]c1C(=O)NCCCCCNC(=O)OC(C)(C)C)c1ccccc1 | inconclusive: 25.9 µM [falling, single point]
16 | Nc1ccc2nc(SCc3cccc(F)c3)sc2c1 | inconclusive: 3.66 µM [activator, full curve]
17 | CCOC(=O)c1ccccc1OC(=O)CS(=O)c1ccccc1[N+](=O)[O-] (centres undefined) | inactive
18 | CC(C)OC(=O)CSc1nc(N)c(C#N)cc1C#N | inactive
19 | Cc1cc(/C=C(\C#N)C(=O)O)c(C)n1CC(C)C | inconclusive: 14.6 µM [falling, partial curve, poor fit]
20 | Cc1nc(NC(=O)/C=C/c2ccco2)sc1C | inconclusive: 14.6 µM [activator, partial curve, poor fit]
21 | N#Cc1cccnc1N1CCC(C(N)=O)CC1 | inconclusive: 6.51 µM [falling, partial curve, poor fit]
22 | COc1ccc(-n2nnc(-c3nc(-c4ccc5c(c4)OCO5)no3)c2C)cc1Cl | inconclusive: 6.51 µM [activator, partial curve, poor fit]

Row | Structure (SMILES) | Potency
23 | Cn1c(CCc2nc3ccccc3[nH]2)nnc1SCC#N | inactive
24 | O=C(c1cc2c(F)cccc2s1)N1CCCC1 | inconclusive: 14.6 µM [activator, partial curve]
25 | C/C(=N/Nc1ccccc1C(=O)O)c1cccs1 | inconclusive: 18.4 µM [activator, partial curve]
26 | C/C(=N\NC(=O)Cc1ccc(Br)cc1)c1cccnc1 | inconclusive: 6.51 µM [falling, full curve, poor fit]
27 | O=C(CN1CCCC1)Nc1nnc(-c2cccs2)s1 | inconclusive: 0.291 µM [activator, full curve, poor fit]
28 | CC(=O)Nc1ccc(S(=O)(=O)Nc2ccc(Cc3ccncc3)cc2)cc1 | inconclusive: 8.2 µM [falling, partial curve]
29 | CCC1CCCCN1CCCNC(=O)C1CCN(c2nnc(-n3cccc3)s2)CC1 (centres undefined) | inconclusive: 11.6 µM [activator, partial curve, poor fit]
30 | COc1cccc(C2c3c(ncn(-c4cccc(F)c4)c3=N)Oc3ccc4ccccc4c32)c1 (centres undefined) | inconclusive: 23.1 µM [falling, partial curve, poor fit]
31 | O=C(c1ccccc1)c1ccc(OCC(O)CN2CCN(Cc3ccccc3)CC2)cc1 (centres undefined) | inconclusive: 16.4 µM [falling, partial curve]
32 | CC1=C(C(=O)NCc2cccc(Cl)c2)C2(CCCCCC2)OC1=O | inconclusive: 29.1 µM [activator, single point]
33 | CCOC(=O)c1c(C)oc2nc(C)nc(NCCc3ccc(OCC)cc3)c12 | active: 23.1 µM
34 | CCOC(=O)C1CCN(S(=O)(=O)c2ccc3c(c2)N(C(C)=O)CC(C)S3)CC1 (centres undefined) | inconclusive: 8.2 µM [activator, partial curve]
35 | Cc1ccc(-c2cc(C(=O)N3CCCCCC3)no2)cc1 | inconclusive: 1.3 µM [activator, full curve]
36 | O=C(Nc1ccc(-n2nncc2-c2ccco2)cc1)c1ccc(F)cc1 | inconclusive: 18.4 µM [falling, single point]
37 | CCN1C(=O)c2ccc(C(=O)NCc3ccccc3)cc2C1=O | inconclusive: 14.6 µM [activator, partial curve]
38 | Cc1ccc(C(=O)NNC(=O)CCCN2C(=O)/C(=C/c3ccccc3Cl)SC2=S)cc1 | active: 9.2 µM
39 | O=C(N=c1nc2ccccn2s1)c1ccccc1 | inconclusive: 0.731 µM [activator, partial curve, poor fit]
40 | CCOC(=O)Cc1csc(NC(=O)c2cc(-c3ccncc3)nc3ccccc23)n1 | inactive
41 | CC1(C)CC(=O)C2=C(C1)c1c(ccc3ccccc13)NC2c1ccc(C(=O)O)cc1 (centres undefined) | inactive
42 | O=C(CN1CCC(C(=O)c2ccc(F)cc2)CC1)NCc1ccccc1F | inconclusive: 20.6 µM [falling, partial curve]
43 | CCOCC(=O)Nc1nc2ccccc2s1 | inconclusive: 11.6 µM [activator, partial curve, poor fit]
44 | CCOC(=O)c1c(-c2ccc(OC)cc2)oc2cc(Br)c(O)cc12 | inconclusive: 20.6 µM [falling, partial curve, poor fit]

Row | Structure (SMILES) | Potency
45 | Cn1c(SCc2nc3ccccc3s2)nnc1-c1cccs1 | inconclusive: 13 µM [activator, partial curve]
46 | C[C@H](NC(=O)[C@@H]1CSC2c3ccccc3C(=O)N21)C(=O)NCCc1ccccc1 (some centres undefined) | inconclusive: 18.4 µM [activator, partial curve]
47 | CC1(C)CC2CC(C)(CN2S(=O)(=O)c2ccc(C(=O)Nc3ccc(Cl)c(S(=O)(=O)N4CCOCC4)c3)cc2)C1 (centres undefined) | active: 5.17 µM
48 | COc1ccc(-c2nn(-c3ccccc3)cc2C(=O)Nc2nccs2)cc1 | inconclusive: 20.6 µM [falling, partial curve, poor fit]
49 | C/C(=N/OC(=O)c1ccc(Cl)cc1Cl)c1oc(C)nc1C | inconclusive: 7.31 µM [falling, partial curve, poor fit]
50 | CC(C)Oc1ccc(C(=O)N2CCC(c3nc4ccccc4s3)CC2)cc1 | inconclusive: 29.1 µM [falling, single point]
51 | CCC(=O)Nc1ccc(Oc2ccc(NC(=O)CC)c(NC(=O)CC)c2)cc1 | inconclusive: 23.1 µM [falling, partial curve, poor fit]
52 | Cc1ccc(SCCNC(=O)CN(c2cccc(C)c2C)S(C)(=O)=O)cc1 | inconclusive: 18.4 µM [falling, single point]
53 | CN(CC(=O)Nc1ccc(Cl)c(C(F)(F)F)c1)C(=O)Cc1c[nH]c2ccccc12 | inconclusive: 32.6 µM [falling, single point]
54 | O=C(Cc1cccs1)N(Cc1cccs1)C1(C(=O)NC2CCCCC2)CCCCC1 | inconclusive: 23.1 µM [falling, single point]
55 | COc1ccc(Br)cc1C1C2C=CCCC2(C)C(=O)N1Cc1ccccc1 (centres undefined) | inconclusive: 29.1 µM [falling, single point]
56 | CC(=O)N(C(C)=O)c1cccc2c(N(C(C)=O)C(C)=O)cccc12 | inconclusive: 0.291 µM [falling, full curve]
57 | Cc1ccc(N(CC(=O)NCC2CCCO2)S(=O)(=O)c2ccc(Cl)cc2)cc1C (centres undefined) | inconclusive: 18.4 µM [falling, partial curve, poor fit]
58 | N#C/C(=C(/O)c1ccc(F)cc1)c1nc2ccccc2s1 | inconclusive: 2.91 µM [activator, partial curve]
59 | CC(C(=O)NC1=NCCS1)N1C(=O)C2CC=CCC2C1=O (centres undefined) | inconclusive: 0.651 µM [activator, full curve, poor fit]
60 | COc1cc(Cl)c(NC(=O)CN2C(=O)c3cccnc3Sc3ccccc32)c(OC)c1 | inconclusive: 32.6 µM [falling, single point]
61 | COc1ccc(NC(=O)C(Cc2ccccc2)NS(=O)(=O)c2ccc3c(c2)oc(=O)n3C)c(OC)c1 (centres undefined) | inactive
62 | Cc1c(CC(=O)N2CCN(C(=O)C3COc4ccccc4O3)CC2)c(=O)oc2c(C)c(O)ccc12 (centres undefined) | inconclusive: 29.1 µM [falling, single point]
63 | Cc1ccc(OCC(=O)OCc2cc(=O)n3ccsc3n2)cc1C | inconclusive: 20.6 µM [activator, single point]
64 | CCN(CC)S(=O)(=O)c1cc(NC(=O)CNc2cccc(S(=O)(=O)N3CCCC3)c2)ccc1C | active: 5.17 µM

Copied from above: entries 52 to 63
Row | Structure (SMILES) | Potency
52 | Cc1ccc(SCCNC(=O)CN(c2cccc(C)c2C)S(C)(=O)=O)cc1 | inconclusive: 18.4 µM [falling, single point]
53 | CN(CC(=O)Nc1ccc(Cl)c(C(F)(F)F)c1)C(=O)Cc1c[nH]c2ccccc12 | inconclusive: 32.6 µM [falling, single point]
54 | O=C(Cc1cccs1)N(Cc1cccs1)C1(C(=O)NC2CCCCC2)CCCCC1 | inconclusive: 23.1 µM [falling, single point]
55 | COc1ccc(Br)cc1C1C2C=CCCC2(C)C(=O)N1Cc1ccccc1 (centres undefined) | inconclusive: 29.1 µM [falling, single point]
56 | CC(=O)N(C(C)=O)c1cccc2c(N(C(C)=O)C(C)=O)cccc12 | inconclusive: 0.291 µM [falling, full curve]
57 | Cc1ccc(N(CC(=O)NCC2CCCO2)S(=O)(=O)c2ccc(Cl)cc2)cc1C (centres undefined) | inconclusive: 18.4 µM [falling, partial curve, poor fit]
58 | N#C/C(=C(/O)c1ccc(F)cc1)c1nc2ccccc2s1 | inconclusive: 2.91 µM [activator, partial curve]
59 | CC(C(=O)NC1=NCCS1)N1C(=O)C2CC=CCC2C1=O (centres undefined) | inconclusive: 0.651 µM [activator, full curve, poor fit]
60 | COc1cc(Cl)c(NC(=O)CN2C(=O)c3cccnc3Sc3ccccc32)c(OC)c1 | inconclusive: 32.6 µM [falling, single point]
61 | COc1ccc(NC(=O)C(Cc2ccccc2)NS(=O)(=O)c2ccc3c(c2)oc(=O)n3C)c(OC)c1 (centres undefined) | inactive
62 | Cc1c(CC(=O)N2CCN(C(=O)C3COc4ccccc4O3)CC2)c(=O)oc2c(C)c(O)ccc12 (centres undefined) | inconclusive: 29.1 µM [falling, single point]
63 | Cc1ccc(OCC(=O)OCc2cc(=O)n3ccsc3n2)cc1C | inconclusive: 20.6 µM [activator, single point]
